Data: patent US20240299401A1, “NOVEL REDOX-BASED THERAPEUTIC APPROACH FOR TREATMENT OF CANCER” (THE PENN STATE RESEARCH FOUNDATION, priority 2020, published 2024)
At least one compound was matched to its structure with a doubt left.

Tested on: extracellular reduced thiols
Test: Extracellular thiols measurement (DTDP method)
Format: cell-based, human
Details: A549 and H1299; 24 h; Erastin 5 μM, MSG 50 mM, Sorafenib 2.5 μM, trans-2,4-PDC 100 μM
Method: Cell culture media was collected at specified time points after incubation with the respective compounds as described in the respective figure legends and extracellular total thiols were measured using the DTDP method 19. The protocol was adjusted to 96-well plate format. […] Absorbance was measured at 324 nm in a spectrophotometer (PowerWave HT, BioTek, VT, USA). The assay mixture with fresh media was used as a blank.

CCOc1ccccc1-n1c(C(C)N2CCN(C(=O)COc3ccc(Cl)cc3)CC2)nc2ccccc2c1=O (stereo not shown) [Erastin]
thiols efflux: inhibited thiols efflux
